Values of other authors, collected in patent US20070078434A1, “Indications For Local Transport of Anaesthetic Agents By Electrotransport Devices” (Vyteris, Inc., priority 2005, published 2007).
Some entries share one result that the patent states for a list of compounds.

Conditions: without vasoconstrictor; cited from earlier work
In the case of `CCCCN1CCCCC1C(=O)Nc1c(C)cccc1C` (stereo not drawn) [bupivacaine], the duration of effects is listed as 3 to 4 h. For `CCN(CC)CCOC(=O)c1ccc(N)cc1Cl` [chloroprocaine], the duration of effects is given as under 2 h. In the case of `CCCN(CC)C(CC)C(=O)Nc1c(C)cccc1C` (stereo not drawn) [etidocaine], the duration of effects is listed as 3 to 4 h. In the case of `Cc1cccc(C)c1NC(=O)C1CCCCN1C` (stereo not drawn) [mepivacaine], the duration of effects is listed as 3 to 4 h. For `CCCNC(C)C(=O)Nc1ccccc1C` (stereo not drawn) [prilocaine], the duration of effects is given as under 2 h. In the case of `CCN(CC)CCOC(=O)c1ccc(N)cc1` [procaine], the duration of effects is given as under 2 h.
